# Among all 300,000 compounds or so, about 5,400 (1.8%) were called active. This list was built around the results that the source calls inconclusive (neither active nor inactive); the mix of calls is not that of the screen. Calls come from the whole dose curve; tested in HEK293 cells. Potencies of inconclusive entries are doubtful fits and often do not repeat.
# Assay: qHTS for inhibitors of binding or entry into cells for Marburg Virus
# Details: Marburg virus pseudotyped entry inhibition, cell reporter; activity change, negative = inhibition: at 37.8 µM (top of the series) unless noted
# % is set by controls: 0 for no effect and ±100 for the full control effect; potency is the fitted concentration of half-maximal effect.
SMILES,Potency,"activity change, negative = inhibition"
CCC1C(=O)CC(c2ccc([N+](=O)[O-])cc2)NC1c1ccc([N+](=O)[O-])cc1 (stereo not given),"inconclusive: 1.78 µM [inhibitor, full curve, poor fit]",–
O=C(c1cccc(C(=O)N2CCN(c3ccccc3F)CC2)n1)N1CCN(c2ccccc2F)CC1,"inconclusive: 29.1 µM [inhibitor, single point]",–
CCN(CCCNC(=O)CSc1cc(=O)n(C)c2cc(Cl)ccc12)Cc1ccccc1,active: 11.2 µM,–
O=C(CSc1nnc2c(n1)[nH]c1ccccc12)OCc1ccccc1,–,inactive: 8.94%
CCc1nnc(NC(=O)C(CC)c2ccccc2)s1 (stereo not given),–,inactive: -0.97%
CCOC(=O)Cc1csc(NC(=O)c2sc3nc4ccc(CC)cc4cc3c2N)n1,"inconclusive: 1.26 µM [activator, single point]",–
Cc1c(NC(=O)c2cc(-c3ccc(Br)cc3)on2)c(=O)n(-c2ccccc2)n1C,"inconclusive: 5.62 µM [inhibitor, single point]",–
CCOC(=O)/C(C#N)=C1/C=Cc2ccccc2N1CC,–,inactive: 8.72%
CSc1cccc(NS(=O)(=O)c2ccc(C(C)=O)cc2)c1,"inconclusive: 8.2 µM [inhibitor, partial curve, poor fit]",–
COc1ccc(CC(=O)NNS(=O)(=O)c2ccccc2[N+](=O)[O-])cc1,–,inactive: 1.2%
O=[N+]([O-])c1ccc(Cl)c(-c2ccc(/C=N/c3c(-c4ccco4)nc4ccccn34)o2)c1,"inconclusive: 0.398 µM [inhibitor, single point]",–
COc1ccccc1CN1CC(C(=O)N2CCC(OC)CC2)CCC1=O (stereo not given),–,inactive: 10%
O=C(Nc1ccccn1)c1cc(-c2cccc(Cl)c2)nc2ccccc12,"inconclusive: 10 µM [inhibitor, partial curve]",–
S=C1CCSc2ccc(Cl)cc2N1,"inconclusive: 5.62 µM [inhibitor, single point]",–
C=CCn1c(SCC(=O)Nc2sccc2C(N)=O)nc2ccccc2c1=O,"inconclusive: 35.5 µM [inhibitor, single point]",–
Cc1ccn2c(c1)nc(=O)c1cc(S(=O)(=O)N3CCCCC3)c(Cl)cc12,–,inactive: -6.98% [at 46.1 µM]
O=C(Nc1ccccc1)Nc1csc2ccccc12,–,inactive: -1.1% [at 46.1 µM]
CCn1c(SCC(=O)NNC(=O)Cc2ccccc2)nnc1-c1ccncc1,"inconclusive: 25.1 µM [inhibitor, single point]",–
O=C(CSc1ccc(Cl)cc1)N1CCN(c2ccc([N+](=O)[O-])cc2Cl)CC1,"inconclusive: 31.6 µM [inhibitor, single point]",–
CCc1ccccc1NC(=O)CN(c1ccc(OC)cc1)S(=O)(=O)c1c(C)n[nH]c1C,"inconclusive: 35.5 µM [inhibitor, single point]",–
CC(C)(C)S(=O)(=O)c1ccccc1C(=O)O,–,inactive: 0.0557% [at 46.1 µM]
CCC(C)(C)NC(=O)c1cc([N+](=O)[O-])ccc1N1CCOCC1,–,inactive: 19.5%
OCCN1CCN(c2ncnc3c2c(-c2ccccc2)cn3-c2ccc(Br)cc2)CC1,"inconclusive: 5.62 µM [activator, single point]",–
COc1cccc(NC(=O)CN(C)C(=O)CC(C)c2ccccc2)c1 (stereo not given),–,inactive: 2.51% [at 46.1 µM]

SMILES,Potency,"activity change, negative = inhibition"
CC(C)(C)OC(=O)N1CCC(c2nnc(SCc3ccccc3F)o2)CC1,–,inactive: 22.6% [at 46.1 µM]
COC(=O)c1c(C)[nH]c(C(=O)OCC(=O)N2c3ccccc3NC(=O)C2(C)C)c1C,"inconclusive: 7.08 µM [inhibitor, full curve, poor fit]",–
O=C(CSc1nnnn1C1CC1)Nc1cccc(S(=O)(=O)N2CCCC2)c1,"inconclusive: 0.708 µM [inhibitor, partial curve, poor fit]",–
CCCCNC(=O)C1CCN(Cc2ccc(OCc3ccccc3)cc2)CC1,"inconclusive: 35.5 µM [inhibitor, single point]",–
CCCCOC(=O)Nc1ccc(N2CCCCC2)cc1,"inconclusive: 31.6 µM [inhibitor, single point]",–
COc1ccccc1C(=O)C1CCCN(Cc2cn[nH]c2C2CCCCC2)C1 (stereo not given),"inconclusive: 35.5 µM [inhibitor, single point]",–
CCOC(=O)CSC1=C(C#N)C(c2ccc(C)s2)CC(=O)N1 (stereo not given),"inconclusive: 0.92 µM [inhibitor, full curve]",–
O=C(OC(c1ccccc1)c1nccc2ccccc12)c1ccccc1 (stereo not given),"inconclusive: 14.1 µM [inhibitor, single point]",–
Cc1ccc(C(=O)N(C)CC(=O)Nc2ccc(F)c(F)c2F)o1,–,inactive: 13.2%
O=C(CSCc1ccc(Cl)cc1)Nc1ccc(S(=O)(=O)N2CCCCCC2)cc1,"inconclusive: 3.16 µM [activator, partial curve, poor fit]",–
Cc1ccccc1Nc1c(-c2c[nH]c3ccccc23)nc2ccccn12,"inconclusive: 12.6 µM [activator, single point]",–
CN1OCC(S(=O)(=O)c2ccccc2)C1c1ccccc1 (stereo not given),–,inactive: -3.59% [at 46.1 µM]
COc1ccc(CCNc2cc(N3CCN(C(=O)c4ccccc4F)CC3)ccc2[N+](=O)[O-])cc1OC,"inconclusive: 1.41 µM [inhibitor, full curve, poor fit]",–
Cc1ccc(S(=O)(=O)N(C)c2ccc(C(=O)N3CCc4ccccc4C3)cc2)cc1,"inconclusive: 35.5 µM [inhibitor, single point]",–
Cc1nn(Cc2ccc(Cl)cc2)c(C)c1NC(=O)c1ccc([N+](=O)[O-])cc1,–,inactive: -22.5%
CCN1CCN(c2ccc(S(=O)(=O)N3CCCCC3)cc2NC(=O)Cc2ccc(Cl)c(Cl)c2)CC1,"inconclusive: 35.5 µM [inhibitor, single point]",–
Cc1ccsc1/C=N/NS(=O)(=O)c1ccc([N+](=O)[O-])cc1,–,inactive: 1.49%
Cc1ccc(OCc2ccc(C(=O)N3CCCC3)o2)cc1C,"inconclusive: 25.1 µM [inhibitor, single point]",–
COc1cccc(-c2nnn(CC(C)=O)n2)c1,–,inactive: 13.2% [at 46.1 µM]
C=C(C)COc1ccc(-c2ncncc2-c2ccccc2)c(O)c1,–,inactive: -2.37% [at 46.1 µM]
C=CCN1C(=O)c2ccc(C(=O)N(C)CC(=O)Nc3ccccc3C(F)(F)F)cc2C1=O,"inconclusive: 3.55 µM [activator, single point]",–
CCOC(=O)C1CCCN(C(=O)c2cc3c(=O)n(C)c4ccccc4c3n2C)C1 (stereo not given),–,inactive: -3.72%
CC(=O)NCCC1CCCCN1Cc1nc(Cc2cccc(C(F)(F)F)c2)no1 (stereo not given),"inconclusive: 11.2 µM [inhibitor, single point]",–
Cc1ccc(NCc2nnc(SC(C)C(=O)N/N=C/c3ccc(C)o3)n2-c2ccccc2)cc1 (stereo not given),–,inactive: 13% [at 46.1 µM]

# Entries of single compounds, looked up by structure. Order of values: Potency | activity change, negative = inhibition
# CCOC(=O)Cc1csc(NC(=O)c2sc3nc4ccc(CC)cc4cc3c2N)n1 in the list: inconclusive: 1.26 µM [activator, single point] | –
# O=C(CSc1nnc2c(n1)[nH]c1ccccc12)OCc1ccccc1 in the list: – | inactive: 8.94%
# CSc1cccc(NS(=O)(=O)c2ccc(C(C)=O)cc2)c1 in the list: inconclusive: 8.2 µM [inhibitor, partial curve, poor fit] | –
# O=C(OC(c1ccccc1)c1nccc2ccccc12)c1ccccc1 (stereo not given) in the list: inconclusive: 14.1 µM [inhibitor, single point] | –

# Additional compounds:

SMILES,Potency,"activity change, negative = inhibition"
CCCCC(=O)NCc1ccccc1Cl,"inconclusive: 10 µM [activator, partial curve]",–
CCOc1cc(/C=N/NC(=O)c2nn(C)cc2Br)ccc1OCc1ccccc1,–,inactive: 20%
COc1ccc(C(C(=O)NCc2ccccc2)N(C(=O)c2snc(C(N)=O)c2N)C2CCCC2)cc1O (stereo not given),"inconclusive: 6.31 µM [activator, single point]",–
N#Cc1ccc(-c2cccs2)nc1SCc1cccnc1,"inconclusive: 25.1 µM [inhibitor, partial curve, poor fit]",–
CCOC(=O)Nc1nnc(-c2cccc(OC)c2)s1,–,inactive: 16.6%
CCS(=O)(=O)n1nc(-c2ccc(OC)cc2)nc1N,–,inactive: 15.8% [at 46.1 µM]
CCn1c(C)c(C)c2cc(C(=O)Nc3cccc(Cl)c3)ccc21,"inconclusive: 35.5 µM [inhibitor, single point]",–
O=P(c1ccccc1)(c1ccccc1)c1cc(Br)cc(Br)c1OCCO,active: 12.6 µM,–
COc1ccc(C(=O)N/C(=C\c2ccc3c(c2)OCO3)C(=O)NCCc2nc3ccccc3[nH]2)cc1,"inconclusive: 1.78 µM [activator, partial curve]",–
COc1ccc(NC(=O)C(=O)N/N=C\c2ccc(CNC(=O)C(=O)Nc3ccc(C)c(C)c3)o2)c(OC)c1,"inconclusive: 0.891 µM [inhibitor, full curve, poor fit]",–
CCCCC(=O)Oc1cc(C)[nH]c(=O)c1[N+](=O)[O-],"inconclusive: 6.31 µM [inhibitor, single point]",–
COc1ccc(C2=NO[C@@H]3[C@@H]4C[C@@H]([C@H]5C(=O)N(c6ccc7c(c6)OCO7)C(=O)[C@@H]45)[C@H]23)cc1OC,"inconclusive: 0.631 µM [activator, partial curve, poor fit]",–
Nc1nonc1C(=O)NCCNCc1ccccc1OCc1ccccc1F,"inconclusive: 9.2 µM [inhibitor, partial curve, poor fit]",–
Clc1ccccc1OCCCOc1cccc2cccnc12,"inconclusive: 0.282 µM [activator, full curve, poor fit]",–
COc1ccc(-c2nc(CN(C)C(C)c3ccon3)c(C)o2)c(C)c1C (stereo not given),"inconclusive: 15.8 µM [inhibitor, partial curve, poor fit]",–
Cc1[nH]c2ccc(-c3nnc(SCC(=O)c4ccc(F)cc4)o3)cc2c1C,–,inactive: -22.4%
CN(C)CCCNC(CC(=O)Nc1cccc([N+](=O)[O-])c1)C(=O)O (stereo not given),"inconclusive: 2.82 µM [inhibitor, single point]",–
O=C(COc1ccc(Br)cc1)N1CCC(c2ccccc2)C1 (stereo not given),–,inactive: 23.2%
COCCn1nnnc1C(c1cc2cccc(C)c2[nH]c1=O)N1CCN(c2ccccc2F)CC1 (stereo not given),inactive,–
COC(=O)c1ccccc1NC(=S)NC(NC(=O)COc1ccccc1)C(Cl)(Cl)Cl (stereo not given),"inconclusive: 1.26 µM [inhibitor, single point]",–
Cc1nc(-c2ccccn2)sc1C(=O)Nc1ccc(F)cc1,–,inactive: 0.863%
CC(C)(C)c1ccc(OC(=O)N2CCCCC2)cc1,"inconclusive: 2.82 µM [activator, single point]",–

# — PubChem BioAssay AID540276 (National Center for Advancing Translational Sciences (NCATS), 2011)
